No constants are given. Whether binding was seen depends on the method and setting. Sequences can lack the tags named with a protein.
Target: GAL4 DBD-BEAF-32B (Drosophila)
Assay: two-hybrid; GAL4 AD fusions (pOAD) against GAL4 DBD fusions (pOBD2) in yeast; 50 to 100 colonies with both plasmids scored for growth on medium lacking adenine and histidine, with X-α-Gal

binding: no binding
B1: SSRP, subunit of FACT, yeast two-hybrid fusion (protein, UniProt Q05344 1-723)
chain: MTDSLEYNDINAEVRGVLCSGRLKMTEQNIIFKNTKTGKVEQISAEDIDLINSQKFVGTWGLRVFTKGGVLHRFTGFRDSEHEKLGKFIKAAYSQEMVEKEMCVKGWNWGTARFMGSVLSFDKESKTIFEVPLSHVSQCVTGKNEVTLEFHQNDDAPVGLLEMRFHIPAVESAEEDPVDKFHQNVMSKASVISASGESIAIFREIQILTPRGRYDIKIFSTFFQLHGKTFDYKIPMDSVLRLFMLPHKDSRQMFFVLSLDPPIKQGQTRYHYLVLLFAPDEETTIELPFSEAELRDKYEGKLEKEISGPVYEVMGKVMKVLIGRKITGPGNFIGHSGTAAVGCSFKAAAGYLYPLERGFIYIHKPPLHIRFEEISSVNFARSGGSTRSFDFEVTLKNGTVHIFSSIEKEEYAKLFDYITQKKLHVSNMGKDKSGYKDVDFGDSDNENEPDAYLARLKAEAREKEEDDDDGDSDEESTDEDFKPNENESDVAEEYDSNVESDSDDDSDASGGGGDSDGAKKKKEKKSEKKEKKEKKHKEKERTKKPSKKKKDSGKPKRATTAFMLWLNDTRESIKRENPGIKVTEIAKKGGEMWKELKDKSKWEDAAAKDKQRYHDEMRNYKPEAGGDSDNEKGGKSSKKRKTEPSPSKKANTSGSGFKSKEYISDDDSTSSDDEKDNEPAKKKSKPPSDGDAKKKKAKSESEPEESEEDSNASDEDEEDEASD

From paper PMC9635645
